According to patent US20210333285A1, “DETECTION OF PHOSPHOKINASE SIGNATURES” (The Regents of the University of California, priority 2018, published 2021):
At least one structure is not confirmed: it was looked up by name or label, or the drawing left a doubt.

Tested on: A375
Assay: 3-day CellTiter-Glo cell viability assay
Assay type: cell-based
Settings: A375 compared with WiDr, GI50 in 3-day assays
Protocol: To assess the growth/survival response of cell lines to single or combinatorial drug treatments in FIGS. 2-3 and FIGS. 20, 22, 28, 29, we used CellTiter-Glo cell viability assay (Promega; cat #G7571). Cell culture and luminescence readouts were performed in 96- and 384-well plates after 3-day treatments. Drug treatment conditions are described in the text. The effects of drug combinations on cell growth were assessed by calculating drug interaction (D.I.; two-way ANOVA using Prism or Sigma Plot software) and combination index (C.I.; following either the Loewe Additivity^6-9 or Bliss Independence models^[…]). […] We systematically tested the effects of drugs in both regular and low serum culture conditions (i.e. 5% and 0.25% FBS media). To quantitate cell death in FIG. 3 and FIGS. 28-29, FACS analysis of nuclear degradation was performed as previously described^13. Colony formation assay in FIG. 3 and FIG. 30 were performed as previously described^5.

Structure (SMILES)	drug concentration needed for response, A375 versus WiDr
CCc1cnn2c(NCc3ccc[n+]([O-])c3)cc(N3CCCC[C@H]3CCO)nc12 [dinaciclib]	much lower concentrations
CC(=O)Nc1cccc(-n2c(=O)n(C3CC3)c(=O)c3c(Nc4ccc(I)cc4F)n(C)c(=O)c(C)c32)c1 [trametinib]	much lower concentrations
